This test concerns the target β-catenin (mouse (endogenous in TKO HCC cells)) (UniProt Q02248). Kind of test: affinity purification with mass spectrometry; IP of β-catenin from TKO HCC cells (CTRL and shEcad2), SDS-PAGE, tryptic digest, LC-MS/MS on LTQ Orbitrap Elite.

Chains of the proteins cited; added tags and fusions are not shown. Residues count along the entry.
UniProt Q02248: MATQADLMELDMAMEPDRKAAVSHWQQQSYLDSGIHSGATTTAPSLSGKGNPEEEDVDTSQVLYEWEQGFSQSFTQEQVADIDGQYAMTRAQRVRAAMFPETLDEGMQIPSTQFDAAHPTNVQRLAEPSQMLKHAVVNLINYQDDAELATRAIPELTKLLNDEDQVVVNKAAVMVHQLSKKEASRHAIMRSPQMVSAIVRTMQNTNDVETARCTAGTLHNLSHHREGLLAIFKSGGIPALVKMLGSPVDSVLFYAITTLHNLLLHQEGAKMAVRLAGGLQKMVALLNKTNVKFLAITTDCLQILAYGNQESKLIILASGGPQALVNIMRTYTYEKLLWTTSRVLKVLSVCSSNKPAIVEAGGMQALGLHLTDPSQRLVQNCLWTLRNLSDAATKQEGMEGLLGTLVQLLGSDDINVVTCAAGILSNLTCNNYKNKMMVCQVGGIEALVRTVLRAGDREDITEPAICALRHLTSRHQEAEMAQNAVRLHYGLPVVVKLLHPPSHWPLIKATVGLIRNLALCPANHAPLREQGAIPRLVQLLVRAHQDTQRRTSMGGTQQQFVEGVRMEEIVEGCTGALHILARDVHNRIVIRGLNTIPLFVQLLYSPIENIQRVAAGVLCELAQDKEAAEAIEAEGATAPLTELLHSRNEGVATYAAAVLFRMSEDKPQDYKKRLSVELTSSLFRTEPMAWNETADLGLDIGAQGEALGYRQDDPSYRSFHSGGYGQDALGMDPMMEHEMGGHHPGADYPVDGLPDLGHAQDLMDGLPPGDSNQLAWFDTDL
UniProt P15116, residues 160-906: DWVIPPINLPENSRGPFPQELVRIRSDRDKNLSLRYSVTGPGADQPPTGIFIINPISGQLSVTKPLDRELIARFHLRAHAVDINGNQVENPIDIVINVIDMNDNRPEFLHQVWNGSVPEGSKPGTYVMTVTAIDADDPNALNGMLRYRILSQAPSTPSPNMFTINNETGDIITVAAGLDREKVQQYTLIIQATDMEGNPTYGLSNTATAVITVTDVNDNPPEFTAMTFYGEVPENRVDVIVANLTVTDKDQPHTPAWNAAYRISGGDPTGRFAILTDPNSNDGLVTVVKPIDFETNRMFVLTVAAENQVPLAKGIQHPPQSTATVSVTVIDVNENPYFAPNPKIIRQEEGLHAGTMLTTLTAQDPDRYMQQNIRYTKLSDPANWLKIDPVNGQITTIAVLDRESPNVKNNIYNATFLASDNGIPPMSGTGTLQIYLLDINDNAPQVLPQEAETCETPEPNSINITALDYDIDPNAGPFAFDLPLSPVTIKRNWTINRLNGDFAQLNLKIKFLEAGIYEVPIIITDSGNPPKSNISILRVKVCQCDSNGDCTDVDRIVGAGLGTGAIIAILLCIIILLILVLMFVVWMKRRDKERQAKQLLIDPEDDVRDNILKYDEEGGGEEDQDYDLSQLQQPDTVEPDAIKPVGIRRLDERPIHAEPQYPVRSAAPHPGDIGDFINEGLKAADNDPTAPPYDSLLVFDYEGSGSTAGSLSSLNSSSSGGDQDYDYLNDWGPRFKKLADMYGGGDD

No constants are given. Whether binding was seen depends on the method and setting. Binding seen in cells or lysates may run through a third protein. Here binding means that the protein was enriched with, or labelled near, the bait; the list need not be complete.

On to “N-cadherin (from UniProt P15116 160-906)”, for which the binding result is recorded as “binds”.

These data come from PMC6478918.
